Reference: article PMC11721573
Read-outs that look alike come from different tables or passages of the source. Results are given in words; binding and its absence hold for the method and conditions named. In cells and extracts the contact can be indirect. Some entries that bind do so weakly or less than the wild type.

Amino acid sequences for entries named in this document (tags omitted). A change or cut given only in a name is not applied to a line headed by its entry.
UniProt P09022: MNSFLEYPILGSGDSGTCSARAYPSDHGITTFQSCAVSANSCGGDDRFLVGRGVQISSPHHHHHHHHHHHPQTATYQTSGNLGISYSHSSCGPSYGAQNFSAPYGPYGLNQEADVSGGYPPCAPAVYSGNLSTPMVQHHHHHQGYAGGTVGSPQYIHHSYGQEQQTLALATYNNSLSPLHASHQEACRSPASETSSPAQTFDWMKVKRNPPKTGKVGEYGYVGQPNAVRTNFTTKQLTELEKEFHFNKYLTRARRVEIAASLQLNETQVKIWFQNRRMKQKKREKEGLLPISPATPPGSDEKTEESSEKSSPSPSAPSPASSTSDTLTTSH
UniProt P31245: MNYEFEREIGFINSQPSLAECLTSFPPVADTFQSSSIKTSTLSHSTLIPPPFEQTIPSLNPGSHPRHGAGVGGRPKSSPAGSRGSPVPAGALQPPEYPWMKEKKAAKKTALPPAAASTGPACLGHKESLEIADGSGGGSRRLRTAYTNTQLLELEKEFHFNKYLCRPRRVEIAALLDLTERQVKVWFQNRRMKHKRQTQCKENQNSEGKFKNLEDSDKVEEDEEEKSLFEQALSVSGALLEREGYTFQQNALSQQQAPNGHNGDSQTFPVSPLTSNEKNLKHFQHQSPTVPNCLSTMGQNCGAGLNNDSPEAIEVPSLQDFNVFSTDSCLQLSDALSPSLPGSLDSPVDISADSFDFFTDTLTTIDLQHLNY
UniProt O60479: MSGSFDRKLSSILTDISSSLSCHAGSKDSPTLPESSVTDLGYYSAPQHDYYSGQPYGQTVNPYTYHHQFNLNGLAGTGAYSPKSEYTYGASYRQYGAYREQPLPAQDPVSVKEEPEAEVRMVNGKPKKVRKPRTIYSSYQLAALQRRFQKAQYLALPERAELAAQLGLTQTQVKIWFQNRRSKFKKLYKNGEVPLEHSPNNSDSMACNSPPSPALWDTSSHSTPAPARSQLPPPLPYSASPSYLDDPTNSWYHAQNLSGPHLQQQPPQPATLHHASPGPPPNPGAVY

Legend:
HOXA1 (mouse) [1] = molecular target: HOXA1 (mouse) (UniProt P09022); test: split reporter; BiFC with VN173 and VC155 moieties of Venus in transfected COS-7 cells, fixed 24 h after transfection, confocal microscopy; positive when the signal was at least 3 times that of the 3 control conditions
HOXA1^E243A (mouse) [2] = molecular target: HOXA1^E243A (mouse) (UniProt P09022); test: as above
HOXA1 (mouse) [3] = molecular target: HOXA1 (mouse) (UniProt P09022); test: pull-down; glutathione coprecipitation: HEK293T cells co-transfected with plasmids for a GST-tagged and a FLAG-tagged protein; lysis in IPLS buffer (20 mM Tris-HCl pH 7.5, 120 mM NaCl, 0.5 mM EDTA, 0.5% NP40, 10% glycerol); overnight on glutathione-sepharose beads at 4 °C; Western blot with anti-FLAG and anti-GST
HOXA1^E243A (mouse) [4] = molecular target: HOXA1^E243A (mouse) (UniProt P09022); test: as above
HOXA1^E243G (mouse) = HOXA1^E243G (mouse) (UniProt P09022); test: split reporter; BiFC with VN173 and VC155 moieties of Venus in transfected COS-7 cells, fixed 24 h after transfection, confocal microscopy; positive when the signal was at least 3 times that of the 3 control conditions
HOXA2 (mouse) [5] = molecular target: HOXA2 (mouse) (UniProt P31245); test: as above
HOXA1 (mouse) [6] = molecular target: HOXA1 (mouse) (UniProt P09022); test: as above; remark: listed apart in the source
HOXA2 (mouse) [7] = molecular target: HOXA2 (mouse) (UniProt P31245); test: as above; remark: listed apart in the source

HOXA1^E243A (from UniProt P09022 1-331) was tested, and the binding (HOXA1 (mouse) [1]) was “binds”, the binding (HOXA1^E243A (mouse) [2]) was “binds” and the binding (HOXA1 (mouse) [3]) was “binds”. For the same molecule, the binding (HOXA1^E243A (mouse) [4]) was “binds”.

With HOXA1^E243G (from UniProt P09022 1-331) the binding (HOXA1 (mouse) [1]) was “binds” and the binding (HOXA1^E243G (mouse)) was “binds”.

With HOXA1 (from UniProt P09022 1-331) the binding (HOXA1 (mouse) [1]) was “binds” and the binding (HOXA1 (mouse) [3]) was “binds”.

DLX3 (from UniProt O60479 1-287) was tested, and the binding (HOXA1 (mouse) [1]) was “binds” and the binding (HOXA2 (mouse) [5]) was “binds”.

With HOXA2 (from UniProt P31245 1-372) the binding (HOXA1 (mouse) [1]) was “binds”, the binding (HOXA2 (mouse) [5]) was “binds” and the binding (HOXA1 (mouse) [3]) was “binds”.

B1: PBX1A (protein, UniProt P40424-1 1-430)
chain: MDEQPRLMHSHAGVGMAGHPGLSQHLQDGAGGTEGEGGRKQDIGDILQQIMTITDQSLDEAQARKHALNCHRMKPALFNVLCEIKEKTVLSIRGAQEEEPTDPQLMRLDNMLLAEGVAGPEKGGGSAAAAAAAAASGGAGSDNSVEHSDYRAKLSQIRQIYHTELEKYEQACNEFTTHVMNLLREQSRTRPISPKEIERMVSIIHRKFSSIQMQLKQSTCEAVMILRSRFLDARRKRRNFNKQATEILNEYFYSHLSNPYPSEEAKEELAKKCGITVSQVSNWFGNKRIRYKKNIGKFQEEANIYAAKTAVTATNVSAHGSQANSPSTPNSAGSSSSFNMSNSGDLFMSVQSLNGDSYQGAQVGANVQSQVDTLRHVISQTGGYSDGLAASQMYSPQGISANGGWQDATTPSSVTSPTEGPGSVHSDTSN
With B1 the binding (HOXA1 (mouse) [6]) was “binds” and the binding (HOXA2 (mouse) [7]) was “binds”.
